Some of the results follow.
Key:
Test in all cases: glycan array binding signal (z-score within array); higher = stronger binding
Details in all cases: glycan notation: IUPAC condensed, linker removed
[1] = biological target: Neu5Ac(a2-6)Gal(b1-4)GlcNAc(b1-2)Man(a1-3)[GlcNAc(b1-4)][Neu5Ac(a2-6)Gal(b1-4)GlcNAc(b1-2)Man(a1-6)]Man(b1-4)GlcNAc(b1-4)GlcNAc
Outline: (§1)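 Columns mapping to the same glycan were averaged after glycan names were converted to IUPAC-condensed notation. The data come from 3228 arrays in the Consortium for Functional Glycomics database, limited to those with an available protein sequence. Binding is reported as a within-array Z-score averaged across arrays of one protein sequence and across linkers.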

[2] = biological target: Neu5Ac(a2-6)Gal(b1-4)GlcNAc(b1-2)Man(a1-3)[Man(a1-6)]Man(b1-4)GlcNAc(b1-4)GlcNAc
Outline: as §1

[3] = biological target: Neu5Ac(a2-6)Gal(b1-4)GlcNAc(b1-2)Man(a1-3)[Neu5Ac(a2-3)Gal(b1-4)GlcNAc(b1-2)Man(a1-6)]Man(b1-4)GlcNAc(b1-4)GlcNAc
Outline: as §1

[4] = biological target: Neu5Ac(a2-6)Gal(b1-4)GlcNAc(b1-2)Man(a1-3)[Neu5Ac(a2-6)Gal(b1-4)GlcNAc(b1-2)Man(a1-6)]Man(b1-4)GlcNAc(b1-4)GlcNAc
Outline: as §1

[5] = biological target: Neu5Ac(a2-6)Gal(b1-4)GlcNAc(b1-2)Man(a1-3)[Neu5Ac(a2-6)Gal(b1-4)GlcNAc(b1-2)Man(a1-6)]Man(b1-4)GlcNAc(b1-4)[Fuc(a1-6)]GlcNAc
Outline: as §1

[6] = biological target: Neu5Ac(a2-6)Gal(b1-4)GlcNAc(b1-2)Man(a1-6)Man(b1-4)GlcNAc(b1-4)GlcNAc
Outline: as §1

[7] = biological target: Neu5Ac(a2-6)Gal(b1-4)GlcNAc(b1-2)Man(a1-6)[Gal(b1-4)GlcNAc(b1-2)Man(a1-3)]Man(b1-4)GlcNAc(b1-4)GlcNAc
Outline: as §1

[8] = biological target: Neu5Ac(a2-6)Gal(b1-4)GlcNAc(b1-2)Man(a1-6)[GlcNAc(b1-2)Man(a1-3)]Man(b1-4)GlcNAc(b1-4)GlcNAc
Outline: as §1

[9] = biological target: Neu5Ac(a2-6)Gal(b1-4)GlcNAc(b1-2)Man(a1-6)[Man(a1-3)]Man(b1-4)GlcNAc(b1-4)GlcNAc
Outline: as §1

[10] = biological target: Neu5Ac(a2-6)Gal(b1-4)GlcNAc(b1-2)[Neu5Ac(a2-6)Gal(b1-4)GlcNAc(b1-4)]Man(a1-3)[GlcNAc(b1-4)][Neu5Ac(a2-6)Gal(b1-4)GlcNAc(b1-2)[Neu5Ac(a2-6)Gal(b1-4)GlcNAc(b1-6)]Man(a1-6)]Man(b1-4)GlcNAc(b1-4)GlcNAc
Outline: as §1

[11] = biological target: Neu5Ac(a2-6)Gal(b1-4)GlcNAc(b1-2)[Neu5Ac(a2-6)Gal(b1-4)GlcNAc(b1-4)]Man(a1-3)[GlcNAc(b1-4)][Neu5Ac(a2-6)Gal(b1-4)GlcNAc(b1-4)Man(a1-6)]Man(b1-4)GlcNAc(b1-4)GlcNAc
Outline: as §1

[12] = biological target: Neu5Ac(a2-6)Gal(b1-4)GlcNAc(b1-2)[Neu5Ac(a2-6)Gal(b1-4)GlcNAc(b1-6)]Man(a1-6)[Neu5Ac(a2-6)Gal(b1-4)GlcNAc(b1-2)Man(a1-3)][GlcNAc(b1-4)]Man(b1-4)GlcNAc(b1-4)GlcNAc
Outline: as §1

[13] = biological target: Neu5Ac(a2-6)Gal(b1-4)GlcNAc(b1-3)Gal(b1-3)GlcNAc
Outline: as §1

[14] = biological target: Neu5Ac(a2-6)Gal(b1-4)GlcNAc(b1-3)Gal(b1-4)GlcNAc
Outline: as §1

[15] = biological target: Neu5Ac(a2-6)Gal(b1-4)GlcNAc(b1-3)Gal(b1-4)GlcNAc(b1-2)Man(a1-3)[Neu5Ac(a2-6)Gal(b1-4)GlcNAc(b1-3)Gal(b1-4)GlcNAc(b1-2)Man(a1-6)]GalNAc
Outline: as §1

[16] = biological target: Neu5Ac(a2-6)Gal(b1-4)GlcNAc(b1-3)Gal(b1-4)GlcNAc(b1-3)Gal(b1-4)GlcNAc
Outline: as §1

[17] = biological target: Neu5Ac(a2-6)Gal(b1-4)GlcNAc(b1-3)Gal(b1-4)GlcNAc(b1-3)Gal(b1-4)GlcNAc(b1-2)Man(a1-3)[Neu5Ac(a2-6)Gal(b1-4)GlcNAc(b1-3)Gal(b1-4)GlcNAc(b1-3)Gal(b1-4)GlcNAc(b1-2)Man(a1-6)]GalNAc
Outline: as §1

[18] = biological target: Neu5Ac(a2-6)Gal(b1-4)GlcNAc(b1-3)Gal(b1-4)GlcNAc(b1-3)GalNAc
Outline: as §1

[19] = biological target: Neu5Ac(a2-6)Gal(b1-4)GlcNAc(b1-3)Gal(b1-4)GlcNAc(b1-3)[Neu5Ac(a2-6)Gal(b1-4)GlcNAc(b1-3)Gal(b1-4)GlcNAc(b1-6)]GalNAc
Outline: as §1

[20] = biological target: Neu5Ac(a2-6)Gal(b1-4)GlcNAc(b1-3)Gal(b1-4)GlcNAc(b1-6)[Gal(b1-3)]GalNAc
Outline: as §1

[21] = biological target: Neu5Ac(a2-6)Gal(b1-4)GlcNAc(b1-3)Gal(b1-4)[Fuc(a1-3)]GlcNAc(b1-3)Gal(b1-4)[Fuc(a1-3)]GlcNAc
Outline: as §1

[22] = biological target: Neu5Ac(a2-6)Gal(b1-4)GlcNAc(b1-3)GalNAc
Outline: as §1

[23] = biological target: Neu5Ac(a2-6)Gal(b1-4)GlcNAc(b1-3)[Neu5Ac(a2-6)Gal(b1-4)GlcNAc(b1-6)]GalNAc
Outline: as §1

[24] = biological target: Neu5Ac(a2-6)Gal(b1-4)GlcNAc(b1-6)GalNAc
Outline: as §1

[25] = biological target: Neu5Ac(a2-6)Gal(b1-4)GlcNAc(b1-6)[Gal(b1-3)GlcNAc(b1-3)]Gal(b1-4)Glc
Outline: as §1

[26] = biological target: Neu5Ac(a2-6)Gal(b1-4)GlcNAc(b1-6)[Gal(b1-3)]GalNAc
Outline: as §1

[27] = biological target: Neu5Ac(a2-6)Gal(b1-4)GlcNAc6S
Outline: as §1

Neu5Ac(a2-6)GalNAc = biological target: Neu5Ac(a2-6)GalNAc
Outline: as §1

[28] = biological target: Neu5Ac(a2-6)GalNAc(b1-4)GlcNAc
Outline: as §1

[29] = biological target: Neu5Ac(a2-6)GalNAc(b1-4)GlcNAc6S
Outline: as §1

[30] = biological target: Neu5Ac(a2-6)GlcNAc(b1-4)GlcNAc
Outline: as §1

B1: Epa8 (Candida glabrata) (protein)
chain: MGSSHHHHHHSSGLVPRGSHMASSRALSDYPLGCSPLLGTKLTPGLSMELYEYPLDNHGIGPHCWDPAYLNPEYPRTGFESHKLIGTAQNVMSLNFEHRTQDCHVEFSNLPASFNFPDQITLTNFTMLLYGYFKPKESGRYRFHMEADDLLLMNLGAGNAFDCCAHEATRNNLGDYIAYDIWAGTRKDVEVFLEKEVFYPLRLFFNNRDGRAALDFSYYLNGATEPGTDIPELLFSLPDGESCPAYI
- glycan array binding signal (z-score) [1]: -1.18
- glycan array binding signal (z-score) [2]: -0.046
- glycan array binding signal (z-score) [3]: -0.239
- glycan array binding signal (z-score) [4]: -0.087
- glycan array binding signal (z-score) [5]: -0.515
- glycan array binding signal (z-score) [6]: 1.29
- glycan array binding signal (z-score) [7]: -1.65
- glycan array binding signal (z-score) [8]: -0.237
- glycan array binding signal (z-score) [9]: 0.785
- glycan array binding signal (z-score) [10]: -0.119
- glycan array binding signal (z-score) [11]: -0.251
- glycan array binding signal (z-score) [12]: -0.185
- glycan array binding signal (z-score) [13]: 0.006
- glycan array binding signal (z-score) [14]: -1.89
- glycan array binding signal (z-score) [15]: 2.31
- glycan array binding signal (z-score) [16]: -0.084
- glycan array binding signal (z-score) [17]: 3.31
- glycan array binding signal (z-score) [18]: -0.236
- glycan array binding signal (z-score) [19]: 0.061
- glycan array binding signal (z-score) [20]: -0.073
- glycan array binding signal (z-score) [21]: -0.491
- glycan array binding signal (z-score) [22]: -0.429
- glycan array binding signal (z-score) [23]: 0.279
- glycan array binding signal (z-score) [24]: 0.167
- glycan array binding signal (z-score) [25]: -0.638
- glycan array binding signal (z-score) [26]: -0.007
- glycan array binding signal (z-score) [27]: 0.102
- glycan array binding signal (z-score) (Neu5Ac(a2-6)GalNAc): -0.562
- glycan array binding signal (z-score) [28]: -0.911
- glycan array binding signal (z-score) [29]: 0.036
- glycan array binding signal (z-score) [30]: 0.862

— the supplement of paper PMC8728848
